# According to the supplement of paper PMC4749390:
# Where a name gives a salt, the structure may show the parent alone. The list shows a part of the results. This data set is noisy: repeats of one test often differ as much as different tests do.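 JEG3 cells stably carry tetracycline-induced wild-type human LRH-1, a heavily sumoylated nuclear receptor. APOC3 and MUC1 are SUMO-sensitive transcripts, raised by SUMO-less LRH-1 or UBC9 knockdown, measured by RT-qPCR against TBP and DMSO controls. A robust Z-score above +2 or below -2 marked a primary hit before toxicity and TBP filtering.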
# Tested on: JEG3 expressing hLRH-1
# Assay: APOC3 transcript change (ddCt vs TBP and DMSO), Z-score over library; higher = higher APOC3 expression
# Conditions: 10 µM; time (hr): 24
row,Compound,APOC3 transcript change (Z-score)
1,C[C@]12CCC(=O)C=C1CCC1C2CC[C@@]2(C)C1CC[C@@H]2O (stereo partly specified) [testosterone],0.546
2,CC(=O)OC1CN2CCC1CC2 (stereo unspecified) [aceclidine hydrochloride],0.434
3,C[N+](C)(C)CCCCCCCCCC[N+](C)(C)C [Decamethonium dibromide],0.19
4,CNc1ccc(C(=O)CC(O)CCC(C)C2OC(=O)CC(O)CC(=O)CC(O)CC(O)CC(O)CC(O)CC3(O)CC(O)C(C(=O)OC)C(CC(O[C@@H]4O[C@H](C)[C@@H](O)[C@H](N)[C@@H]4O)/C=C/C=C/C=C/C=C/C=C/C=C/C=C/C2C)O3)cc1 (stereo partly specified) [mepartricin],-0.943
5,NCCc1cc(O)c(O)cc1O [oxidopamine hydrochloride],0.0319
6,O=C1C[C@@H]2OCC=C3CN4CC[C@]56c7ccccc7N1[C@H]5[C@H]2[C@H]3C[C@H]46 [strychnine],0.733
7,NC(=O)c1cc([N+](=O)[O-])cc([N+](=O)[O-])c1 [nitromide],-0.0516
8,Oc1cc(Cl)ccc1Oc1ccc(Cl)cc1Cl [triclosan],0.207
9,C=C[C@H]1CN2CC[C@H]1C[C@H]2[C@H](O)c1ccnc2ccccc12 [cinchonidine],0.264
10,O=[N+]([O-])O[C@H]1CO[C@H]2[C@@H]1OC[C@H]2O[N+](=O)[O-] [isosorbide dinitrate],-0.685
11,Nc1ccncc1 [4-Aminopyridine],-1.64
12,CN1C[C@H](C(=O)N[C@]2(C)O[C@@]3(O)[C@@H]4CCCN4C(=O)[C@H](Cc4ccccc4)N3C2=O)C[C@@H]2c3cccc4[nH]cc(c34)C[C@H]21 [Dihydroergotamine methanesulfonate],1.27
13,CC(=O)[C@H]1CCC2[C@@H]3CCC4C[C@H](O)CC[C@]4(C)C3CC[C@@]21C (stereo partly specified) [eltanolone],-0.3
14,C[C@@H]1C[C@@H]([C@H](O)CC2CC(=O)NC(=O)C2)C(=O)[C@@H](C)C1 [cycloheximide],0.104
15,C[N+]12CCC(CC1)C(OC(=O)C(O)(c1ccccc1)c1ccccc1)C2 (stereo unspecified) [clidinium bromide],0.262
16,O=C(CCCN1CCC2(CC1)C(=O)NCN2c1ccccc1)c1ccc(F)cc1 [Spiperone hydrochloride],-3.91
17,CC(=O)O[C@H]1CC[C@@]2(C)C(=CCC3C2CC[C@]2(C)C(=O)CCC32)C1 (stereo partly specified) [praesterone acetate],0.175
18,CN1C2C[C@H](OC(=O)[C@H](CO)c3ccccc3)C[C@H]1[C@H]1OC21 (stereo partly specified) [scopolamine hydrobromide],-0.265
19,CCOC(=O)c1cncn1[C@H](C)c1ccccc1 [etomidate],-0.0819
20,O=C1C=C2C=C[C@@H]3C[C@@]2(O1)[C@H]1CCCCN31 [securinine],-2.63
21,CC(=O)Nc1cc([As](=O)(O)O)ccc1O [acetarsol],-0.0977
22,C=CC[C@]1(O)CC[C@H]2[C@@H]3CCC4=CC(=O)CCC4=C3C=C[C@@]21C [altrenogest],-0.276
23,C=CCN=C=S [allylisothiocyanate],1.3

# In the list so far, these contain a carbonyl joined to an NH by a bond outside any ring:
row,Compound,APOC3 transcript change (Z-score)
7,NC(=O)c1cc([N+](=O)[O-])cc([N+](=O)[O-])c1 [nitromide],-0.0516
12,CN1C[C@H](C(=O)N[C@]2(C)O[C@@]3(O)[C@@H]4CCCN4C(=O)[C@H](Cc4ccccc4)N3C2=O)C[C@@H]2c3cccc4[nH]cc(c34)C[C@H]21 [Dihydroergotamine methanesulfonate],1.27
21,CC(=O)Nc1cc([As](=O)(O)O)ccc1O [acetarsol],-0.0977

# Continued.

row,Compound,APOC3 transcript change (Z-score)
1,C1CCc2nnnn2CC1 [pentetrazole],0.296
2,N[C@@H](Cc1ccc(N(CCCl)CCCl)cc1)C(=O)O [melphalan],0.304
3,COc1ccc2c(c1)[C@]13CCCC[C@@H]1[C@H](C2)N(C)CC3 [dextromethorphan hydrobromide],-0.723
4,CC(=O)OCC1=C(C(=O)O)N2C(=O)[C@@H](NC(=O)CCCC(N)C(=O)O)C2SC1 (stereo partly specified) [cephalosporin c sodium],-0.6
5,Nc1nc(N)nc(NC2CC2)n1 [cyromazine],-0.127
6,CC(CCc1ccccc1)NC(C)C(O)c1ccc(O)cc1 (stereo unspecified) [Nylidrin hydrochloride],-0.316
7,C[C@H](N)[C@H](O)c1ccc(O)c(O)c1 [levonordefrin],0.456
8,COc1ccc(CN2CCNCC2)c(OC)c1OC [trimetazidine dihydrochloride],-1.08
9,Cc1ccc(/N=C/N(C)/C=N/c2ccc(C)cc2C)c(C)c1 [amitraz],-0.255
10,Cc1cc(C(C#N)c2ccc(Cl)cc2)c(Cl)cc1NC(=O)c1cc(I)cc(I)c1O (stereo unspecified) [closantel],-0.591
11,C#CCN(C)C(C)Cc1ccccc1 (stereo unspecified) [selegiline hydrochloride],0.406
12,O=C1[O][Pt]2([NH][C@@H]3CCCC[C@H]3[NH]2)[O]C1=O [oxaliplatin],-0.297
13,Cc1cc(O)ccc1Cl [chlorocresol],-0.168
14,C[N+]1(C)CCCC(OC(=O)C(O)(c2ccccc2)c2ccccc2)C1 (stereo unspecified) [mepenzolate bromide],1.1
15,CC(O)(CS(=O)(=O)c1ccc(F)cc1)C(=O)Nc1ccc(C#N)c(C(F)(F)F)c1 (stereo unspecified) [bicalutamide],-1
16,c1ccc2c(c1)sc1ccccc12 [dibenzothiophene],-1.18
17,O=C(O)CCCc1ccc(N(CCCl)CCCl)cc1 [chlorambucil],0.719
18,O=C(N/N=C/c1ccc([N+](=O)[O-])o1)c1cc([N+](=O)[O-])cc([N+](=O)[O-])c1O [nifursol],0.833
19,CC(=O)O[C@H]1C[C@@H]2CC[C@@H]3[C@H](CC[C@@]4(C)[C@H]3C[C@H]([N+]3(C)CCCCC3)[C@@H]4OC(C)=O)[C@@]2(C)C[C@@H]1[N+]1(C)CCCCC1 [pancuronium bromide],-1.02
20,c1ccc2nc(N3CCNCC3)ccc2c1 [Quipazine dimaleate],0.267
21,CC1[C@H](C)OC(=O)CC(O)CC(O)CC(O)CCC(O)C(O)C[C@]2(O)CC(O)C(C(=O)O)C(CC(OC3O[C@H](C)[C@@H](O)[C@H](N)[C@@H]3O)/C=C/C=C/C=C/C=C/CC/C=C/C=C/[C@H](C)[C@H]1O)O2 (stereo partly specified) [nystatin],-0.417
22,O=c1[nH]c(=O)n(Cl)c(=O)n1Cl [troclosene potassium],0.301
23,CCC(C)[C@H]1O[C@]2(C=C[C@@H]1C)C[C@@H]1C[C@@H](C/C=C(\C)[C@@H](OC3C[C@H](OC)C(O[C@H]4C[C@H](OC)[C@@H](O)[C@H](C)O4)[C@H](C)O3)[C@@H](C)/C=C/C=C3\CO[C@@H]4[C@H](O)C(C)=C[C@@H](C(=O)O1)[C@]34O)O2 (stereo partly specified) [avermectin b1],0.364
